Test results from patent publication US20250289886A1.
These are yes or no findings as the source states them, for the method shown. Some results given as binding are weak or reduced against the parent protein; the word gives no strength.

T1: CD300c overexpressed on 293T cells (UniProt Q08708)
T1 sequence (looked up): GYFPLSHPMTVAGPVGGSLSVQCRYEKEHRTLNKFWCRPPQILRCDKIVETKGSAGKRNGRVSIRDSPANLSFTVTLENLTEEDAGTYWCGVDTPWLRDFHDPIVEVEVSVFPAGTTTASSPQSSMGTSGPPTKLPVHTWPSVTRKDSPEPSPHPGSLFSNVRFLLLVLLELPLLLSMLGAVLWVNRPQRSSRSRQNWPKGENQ

T2: CD300c antigen (UniProt Q08708)
T2 sequence (looked up): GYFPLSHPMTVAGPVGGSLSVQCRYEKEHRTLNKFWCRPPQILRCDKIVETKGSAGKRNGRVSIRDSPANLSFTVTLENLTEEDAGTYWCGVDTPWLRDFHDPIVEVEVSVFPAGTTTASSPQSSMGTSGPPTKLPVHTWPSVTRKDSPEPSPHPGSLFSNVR


Experiments:
[1] = target: T1, CD300c overexpressed on 293T cells; assay: flow cytometry (FACS binding) on 293T cells overexpressing CD300c
CD300c antigen = target: T2, CD300c antigen; assay: binding ELISA, CD300c antigen coated on plate

binding [1]	binding (CD300c antigen)	Binder
binds	binds	anti-CD300c monoclonal antibody CB201 (antibody, V domains shown) VH: EVQLLESGGGLVQPGGSLRLSCAASGFTFSRYAMSWVRQAPGKGLEWVSAISGSGGSTYYADSVKGRFTISRDNSKNTLYLQMNSLRAEDTAVYYCARSSQGIFDIWGQGTLVTVSS VL: QSVLTQPPSASGTPGQRVTISCSGNNIGTRRVHWYQQLPDTAPKLLIYSKNNRPSGVPDRFSGSKSGTSASLAISGLRSEDEADYYCAAWDDSLSGPVFGGGTKLTVL
	binds	anti-CD300c monoclonal antibody CL10 (antibody, V domains shown) VH: EVQLLESGGGLVQPGGSLRLSCAASGFTFSSYGMHWVRQAPGKGLEWVSAISGSGGSTYYADSVKGRFTISRDNSKNTLYLQMNSLRAEDTAVYYCASGYGLMDVWGQGTLVTVSS VL: QSVLTQPPSASGTPGQRVTISCTRSSGIIASNYVQWYQQLPGTAPKLLIYRNNQRPSGVPDRFSGSKSGTSASLAISGLRSEDEADYYCSSYAGNNNLVFGGGTKLTVL
	binds	anti-CD300c monoclonal antibody SL18 (antibody, V domains shown) VH: RVQLLESGGGLVQPGGSLRLSCAASGFTFSDYHMHWVRQAPGKGLEWVSTISSSGGYTYYAESVKSRFTISRDNSKNTLYLQMNSLRAEDTAVYYCARSIRLPLDYWGQGTLVTVSS VL: QSVLTQPPSASGTPGQRVTISCSGNNIGSKGVHWYQQLPGTAPKLLIYEDSKRPSGVRDRFSGSKSGTSASLAISGLRSEDEADYYCQSYDSTKGVVFGGGTKLTVL
